Measurements reported in patent US20160046678A1 (ZYNGENIA, published 2016).
No constants are given. Whether binding was seen depends on the method and setting. Some results given as binding are weak or reduced against the parent protein; the word gives no strength.

Amino acid sequences for entries named in this document (tags omitted). Residues count along the entry.
UniProt P05231, residues 30-212: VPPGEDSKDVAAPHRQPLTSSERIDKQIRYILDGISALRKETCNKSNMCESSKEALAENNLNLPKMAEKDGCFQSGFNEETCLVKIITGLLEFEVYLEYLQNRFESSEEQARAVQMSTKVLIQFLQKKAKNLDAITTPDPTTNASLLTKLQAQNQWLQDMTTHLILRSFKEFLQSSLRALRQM

B1: ILB833 (peptide)
peptide: FNEDCMWDPLLMDCAYSPAGGSPKSECVAPLEMIECPSLW
B2: ILB834 (peptide)
peptide: FNEDCMWDPLLMDCAYSPGQGSAAGGSSVFWCYSQHGCALTSQG
B3: ILB813 (peptide)
peptide: FNEDCMWDPLLMDCAYSPGQGSAAGGGSMGGEDDIWHQ
B4: ILB802 (peptide)
peptide: FNEDCMWDPLLMDCAYSPGQGSAAGGGSPPHPSNSIWR
B5: ILB840 (peptide)
peptide: FNEDCMWDPLLMDCAYSPGQGSATGGSGSTASAAGGSGEDQCKLFGSGLDTCIPYV
B6: ILB810 (peptide)
peptide: FNEDCMWDPLLMDCAYSPGQGSATGGSGSTASAAGGSDAWGCLDDFFMKVAGCKTLF
B7: ILB804 (peptide)
peptide: FNEDCMWDPLLMDCAYSPAGGGSPDWITWQPAW
B8: ILB850 (peptide)
peptide: FNEDCMWDPLLMDCAYSPGQGSAAGGSHSMLCQPWHLCPPAQQG
B9: ILB820 (peptide)
peptide: FNEDCMWDPLLMDCAYSP
B10: ILB816 (peptide)
peptide: FNEDCMWDPLLMDCAYSPGQGSAAGGGSGMVSHWKKVQ
B11: ILB846 (peptide)
peptide: FNEDCMWDPLLMDCAYSPGQGSAAGGGSEEQPTEWHVY
B12: ILB814 (peptide)
peptide: PDSRCHTLYWALRYCAYQE
B13: ILB826 (peptide)
peptide: FNEDCMWDPLLMDCAYSPGQGSAAGGGSWNRHPPPSGQ
B14: ILB838 (peptide)
peptide: FNEDCMWDPLLMDCAYSPGQGSAAGGSADDCCVSHLPFIGYCGFVRQG
B15: ILB828 (peptide)
peptide: FNEDCMWDPLLMDCAYSPGQGSAAGGGSSCNITDQMGVCL
B16: ILB848 (peptide)
peptide: FNEDCMWDPLLMDCAYSPGQGSATGGSAAGGSETLPCQYWGQSWCSQSAQG
B17: ILB817 (peptide)
peptide: FNEDCMWDPLLMDCAYSPGQGSATGGSGSTASAAGGSQGMPCQYHAMQLCPPSR
B18: ILB800 (peptide)
peptide: FNEDCMWDPLLMDCAYSPGQGSATGGSAAGGSHWERCVPHSDPDYNCSFDS
B19: ILB847 (peptide)
peptide: FNEDCMWDPLLMDCAYSPAGGSETFDCNTPWEHECYGRF
B20: ILB824 (peptide)
peptide: FNEDCMWDPLLMDCAYSPGQGSAAGGGSDCNFAPKETNCW
B21: ILB849 (peptide)
peptide: FNEDCMWDPLLMDCAYSPGQGSATGGSGSTASAAGGGSPCTPWTEWQQCP
B22: ILB854 (peptide)
peptide: FNEDCMWDPLLMDCAYSPGQGSAAGGGSPAERMKMHMF
B23: ILB843 (peptide)
peptide: FNEDCMWDPLLMDCAYSPGQGSAAGGSHESCAVHYQHGCPYASQG
B24: ILB825 (peptide)
peptide: FNEDCMWDPLLMDCAYSPGQGSATGGSGSTASAAGGSKTLFCGYDGYDMCDLSA
B25: ILB855 (peptide)
peptide: FNEDCMWDPLLMDCAYSPGQGSAAGGGSREFTQNWSIY
B26: ILB808 (peptide)
peptide: FNEDCMWDPLLMDCAYSPGQGSAAGDGSMCYQEPHFTYCP
B27: ILB835 (peptide)
peptide: FNEDCMWDPLLMDCAYSPGQGSAAGGGSPRAWQFPVSS
B28: ILB836 (peptide)
peptide: FNEDCMWDPLLMDCAYSPGQGSATGGSAAGGGSICMEYPIIRPCT
B29: ILB831 (peptide)
peptide: FNEDCMWDPLLMDCAYSPGQGSAAGGSARRGCVMLNECSSVSQG
B30: ILB801 (peptide)
peptide: FNEDCMWDPLLMDCAYSPAGGSGWVFRCKNMPCAKAEH
B31: ILB811 (peptide)
peptide: FNEDCMWDPLLMDCAYSPGQGSAAGGSQFLLCNGSEWCPANRQG
B32: ILB812 (peptide)
peptide: FNEDCMWDPLLMDCAYSPGQGSAAGGGSFCMWPFCIPPR
B33: ILB851 (peptide)
peptide: FNEDCMWDPLLMDCAYSPGQGSATGGSGSTASAAGGGSKCSIDVQQCM
B34: ILB829 (peptide)
peptide: FNEDCMWDPLLMDCAYSPGQGSATGGSAAGGSWDDTCNAEVYQQGLMCDTRVQG
B35: ILB853 (peptide)
peptide: FNEDCMWDPLLMDCAYSPGQGSATGGSAAGGGSHHKNNGTIYQ
B36: ILB815 (peptide)
peptide: FNEDCMWDPLLMDCAYSPGQGSATGGSAAGGGSWHSYTAMYAD
B37: ILB832 (peptide)
peptide: FNEDCMWDPLLMDCAYSPGQGSAAGGSRMRSVCPHHVCWRGVPQG
B38: ILB822 (peptide)
peptide: FNEDCMWDPLLMDCAYSPGQGSAAGGGSHPWRHNMHKI
B39: ILB852 (peptide)
peptide: FNEDCMWDPLLMDCAYSPGQGSAAGGGSQPWRHNMQKI
B40: ILB842 (peptide)
peptide: FNEDCMWDPLLMDCAYSPGQGSAAGGGSPCVKAPEFDWCT
B41: ILB806 (peptide)
peptide: FQGHCALFPTDWICTLKS
B42: ILB818 (peptide)
peptide: FNEDCMWDPLLMDCAYSPGQGSATGGSGSTASAAGGGSHQHNFQLRYT
B43: ILB823 (peptide)
peptide: FNEDCMWDPLLMDCAYSPGQGSAAGGSPLVDCLTYPEWVNCPRTIQG
B44: ILB819 (peptide)
peptide: FNEDCMWDPLLMDCAYSPGQGSAAGGGSLCDQWQSARYCV
B45: ILB803 (peptide)
peptide: FNEDCMWDPLLMDCAYSPGQGSATGGSAAGGSRLSLHCPEHPCGSSWTQG
B46: ILB844 (peptide)
peptide: FNEDCMWDPLLMDCAYSPGQGSATGGSGSTASAAGNCSCFIKPVGPDCWAVS
B47: ILB837 (peptide)
peptide: FNEDCMWDPLLMDCAYSPGQGSAAGGGSPCLSWYVAPMF
B48: ILB827 (peptide)
peptide: FNEDCMWDPLLMDCAYSPAGGGSMQYHPWQDMW
B49: ILB821 (peptide)
peptide: FNEDCMWDPLLMDCAYSPGQGSAAGGGSYCHEDPRSLDCR
B50: ILB809 (peptide)
peptide: FNEDCMWDPLLMDCAYSPGQGSAAGGGSECMSSWHGCT
B51: ILB807 (peptide)
peptide: FNEDCMWDPLLMDCAYSPGQGSAAGGSVGLLCQDFAYGQTHCDVLQQG
B52: ILB856 (peptide)
peptide: FNEDCMWDPLLMDCAYSPGQGSATGGSGSTASAAGGGSAYTMWQYHKF

target: IL6 (UniProt P05231); test: MRD identification, Example 48

binding, binds:
B1
B2
B3
B4
B5
B6
B7
B8
B9
B10
B11
B12
B13
B14
B15
B16
B17
B18
B19
B20
B21
B22
B23
B24
B25
B26
B27
B28
B29
B30
B31
B32
B33
B34
B35
B36
B37
B38
B39
B40
B41
B42
B43
B44
B45
B46
B47
B48
B49
B50
B51
B52
